Source: PubChem BioAssay AID1259331 (Drosophila RNAi Screening Center, 2017)
Purpose: 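Fly transmembrane-protein genes that affect zinc toxicity in cultured cells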 (primary screen). System: Drosophila S2R+ cells. Knock-down reagent: long dsRNA against Drosophila genes. Timing: 5 days (4 days knock-down, then 1 day zinc). Treatment: zinc chloride at 15 mM final level for 1 day. Read-out: 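Luminescent ATP assay standing in for viability; Z score is the mean over three replicate plates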. Reading the numbers: mean Z score: higher = more ATP than other wells, better survival under zinc; ATP luminescence: higher = more ATP, more viable cells. Active means: 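Hit when the absolute Z score is greater than 1.5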. Meaning of the calls: active = hit, ATP up or down; inactive = not a hit.
This is a random part of about 3,100 reagents tested. 126 of all reagents (4.1%) were called active. 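Calls are per reagent; zinc was so toxic that few knock-downs lowered ATP further, so most hits raise ATP.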 The raw values are shown without normalisation. Names joined by + are all predicted targets of the reagent. Not stated in the record: the amount of reagent.

Gene | DRSC id | mean Z score | ATP luminescence, replicate 1 | ATP luminescence, replicate 2 | call
CG16904 | DRSC15161 | -0.476 | 39610 | 42216 | inactive
CG16904 | DRSC25306 | 0.104 | 62467 | 63547 | inactive
PGRP-LD + Pmi | DRSC10512 | -0.305 | 29517 | 24319 | inactive
CG14647 | DRSC22497 | 0.591 | 65108 | 70682 | inactive
CG14647 | DRSC39593 | -0.239 | 58179 | 57545 | inactive
egh (egghead) | DRSC18771 | -0.893 | 55625 | 46760 | inactive
egh (egghead) | DRSC29898 | 0.0305 | 45131 | 51338 | inactive
ZnT86D (Zinc transporter 86D) | DRSC16091 | -0.603 | 31982 | 47527 | inactive
MRP (Multidrug-Resistance like Protein 1) | DRSC02942 | -0.45 | 47840 | 52013 | inactive
MRP (Multidrug-Resistance like Protein 1) | DRSC39503 | -0.161 | 47566 | 46417 | inactive
Spp (Signal peptide peptidase) | DRSC00328 | 0.252 | 52864 | 67132 | inactive
ccb (central complex broad) | DRSC20501 | -0.201 | 39268 | 40108 | inactive

3 entries from above, reduced to “ATP luminescence, replicate 2”:
ZnT86D (Zinc transporter 86D) [DRSC16091]	47527
MRP (Multidrug-Resistance like Protein 1) [DRSC02942]	52013
MRP (Multidrug-Resistance like Protein 1) [DRSC39503]	46417

More reagents:
Gene | DRSC id | mean Z score | ATP luminescence, replicate 1 | ATP luminescence, replicate 2 | call
CG13229 | DRSC06349 | 0.396 | 77027 | 82482 | inactive
Tsp39D (Tetraspanin 39D) | DRSC03099 | -0.991 | 40828 | 33456 | inactive
CG11737 | DRSC14364 | -0.146 | 37240 | 58300 | inactive
Alg9 (ALG9, alpha-1,2-mannosyltransferase) | DRSC14407 | -0.399 | 42730 | 40965 | inactive
Alg9 (ALG9, alpha-1,2-mannosyltransferase) | DRSC39513 | 0.12 | 63547 | 46743 | inactive
otk (off-track) | DRSC07658 | -0.436 | 78366 | 63633 | inactive
otk (off-track) | DRSC29192 | -0.109 | 58594 | 60855 | inactive
otk (off-track) | DRSC36649 | -0.178 | 47274 | 45423 | inactive
otk (off-track) | DRSC36650 | 0.0264 | 47360 | 43399 | inactive
Ir76a (Ionotropic receptor 76a) | DRSC10987 | -1.04 | 23891 | 21829 | inactive
Spase22-23 (Spase 22/23-subunit) | DRSC15857 | 0.129 | 42525 | 48543 | inactive
VhaPPA1-1 (Vacuolar H[+] ATPase PPA1 subunit 1) | DRSC16170 | 0.65 | 52384 | 57538 | inactive
VhaPPA1-1 (Vacuolar H[+] ATPase PPA1 subunit 1) | DRSC24144 | 1.72 | 80544 | 76102 | active
ClC-b (Chloride channel-b) | DRSC07220 | -0.178 | 64640 | 66223 | inactive
CG1213 | DRSC12191 | 0.289 | 72517 | 69584 | inactive
CG10165 | DRSC02017 | -0.426 | 50069 | 50361 | inactive
